# Data taken from the supplement of paper PMC8256030.
# Several values for one entry are separate records, joined by “and”; a condition that tells them apart may be missing. Equal values may be shown once. Some of the results follow. This data set is noisy: repeats of one test often differ as much as different tests do.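 HEK293T cells were given each compound shortly before transfection with a reporter in which red mCherry is followed by the SARS-CoV-2 frameshift element and then GFP in the −1 frame, so GFP appears only after frameshifting.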
# Tested on: HEK293T
# Test: percent viability (nuclei count) relative to control; higher = more viable cells
# Conditions: 10 µM; 24 h
row,Structure (SMILES),percent viability
1,CCCCCCCCCCCCOCCCN [laurixamine],132%
2,CC[C@H](C)[C@H](N)C1=N[C@H](C(=O)N[C@@H](CC(C)C)C(=O)N[C@H](CCC(=O)O)C(=O)N[C@H](C(=O)N[C@H]2CCCCNC(=O)[C@H](CC(N)=O)NC(=O)[C@@H](CC(=O)O)NC(=O)[C@H](Cc3cnc[nH]3)NC(=O)[C@@H](Cc3ccccc3)NC(=O)[C@H]([C@@H](C)CC)NC(=O)[C@@H](CCCN)NC2=O)[C@@H](C)CC)CS1 [Bacitracin],296%
3,O=C(CCCl)NCc1ccccc1 [beclamide],214%
4,O=C1C(=O)c2ccccc2C(O)=C1C1CCC(c2ccc(Cl)cc2)CC1 (centres undefined) [Atovaquone],174%
5,Nc1c(CC(=O)O)cccc1C(=O)c1ccc(Br)cc1 [Xibrom],310%
6,NCCCCC(N)C(=O)O (centres undefined),221% and 213%
7,CCCOc1ccccc1-c1nc2[nH]nnc2c(=O)[nH]1 [zaprinast],156%
8,CC1(C)S[C@@H]2[C@H](NC(=O)[C@H](N)c3ccc(O)cc3)C(=O)N2[C@H]1C(=O)O,218%
9,C1CNCCN1,186%
10,O=C1NC(=O)C(C(=O)Nc2ccc(Cl)cc2)c2ccccc21 (centres undefined) [tesicam],133%
11,Nc1ncnc2c1ncn2Cc1c(F)cccc1Cl [arprinocid],100%
12,CN(CCOc1ccc(CC2SC(=O)NC2=O)cc1)c1ccccn1 (centres undefined),329%
13,O=C(O)Cc1ccccc1Oc1ccc(Cl)cc1Cl [fenclofenac],394%
14,CN[C@@H]1[C@H](O)[C@H](NC)[C@H]2O[C@@]3(O)C(=O)C[C@@H](C)O[C@H]3O[C@@H]2[C@H]1O,196%

# Three structures from above, ordered by molecular weight, high to low:
row,Structure (SMILES),percent viability
2,CC[C@H](C)[C@H](N)C1=N[C@H](C(=O)N[C@@H](CC(C)C)C(=O)N[C@H](CCC(=O)O)C(=O)N[C@H](C(=O)N[C@H]2CCCCNC(=O)[C@H](CC(N)=O)NC(=O)[C@@H](CC(=O)O)NC(=O)[C@H](Cc3cnc[nH]3)NC(=O)[C@@H](Cc3ccccc3)NC(=O)[C@H]([C@@H](C)CC)NC(=O)[C@@H](CCCN)NC2=O)[C@@H](C)CC)CS1 [Bacitracin],296%
8,CC1(C)S[C@@H]2[C@H](NC(=O)[C@H](N)c3ccc(O)cc3)C(=O)N2[C@H]1C(=O)O,218%
3,O=C(CCCl)NCc1ccccc1 [beclamide],214%
